Assay results from PubChem BioAssay AID1347076 (National Center for Advancing Translational Sciences (NCATS), 2019).
“And” between values parts separate entries of the source, which are not always exact repeats. Equal values may be shown once. Screen size: about 400,000 compounds; about 13,000 (3.2%) were called active. The inconclusive results got no clear call from the source; some entries with a clear call stand among them for comparison. Calls follow the shape of the dose curve; as a rule, active = well fitted cell-killing curve with a large enough effect; inconclusive = small, poorly fitted or top-dose-only effect, or effect the other way; inactive = flat fitted curve, though single readings scatter. Potencies beside an inconclusive call are fits to weak or partial responses and may not hold up.

Test: qHTS assay for MDR1-selective chemotherapeutics: Primary screen using the drug-selected MDR subline cells KB-V1; also: nearly all actives have a fitted effect of over 60% in size
Conditions: KB-V1 MDR cells viability, CellTiter-Glo, 72 h; activity change, negative = cytotoxicity: at 46.1 µM (top of the series)
Procedure, shortened: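 Luminescent ATP read-out (CellTiter-Glo, 10 min) measures survival of drug-selected KB-V1 MDR cells after 72 h, 37 degrees C compound exposure. Medium: phenol-red-free DMEM, 10% FBS. Values from fitted concentration-response curves.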
% is scaled to controls: 0 for no effect and ±100 for the full control effect; potency is read from the fitted curve at half-maximal effect.

Structure (SMILES) | activity change, negative = cytotoxicity | Potency
COC(=O)c1ccc(NC(=O)CN(C)S(=O)(=O)c2ccc3c(c2)CCCC(=O)N3)cc1 | inactive: -7.83% | –
CCn1nnc(NC(=O)Cc2ccc(Cl)cc2)n1 | – | inconclusive: 29.1 µM [rising, single point]
COc1cccc(C(=O)N2CCc3cc(OC)c(OC)cc3C2COc2ccc3c(C)cc(=O)oc3c2)c1 (stereo not given) | – | inconclusive: 29.1 µM [rising, single point]
CCN(CC)S(=O)(=O)c1ccc(NC(=O)C2CCCO2)cc1 (stereo not given) | – | inconclusive: 29.1 µM [rising, single point]
O=[N+]([O-])c1ccc(N2CCN(c3ccccc3O)CC2)c(Cl)c1 | – | inconclusive: 20.6 µM [cytotoxic, partial curve, poor fit]
CSc1ccccc1NC(=O)CN(C)CC(=O)Nc1ccc(S(=O)(=O)N2CCCC2)cc1 | – | inconclusive: 29.1 µM [rising, single point]
CC(C)[C@H](NC(=O)OCc1ccccc1)C(=O)OCC(=O)N1CCN(c2ccc(F)cc2)CC1 | – | inconclusive: 0.231 µM [cytotoxic, full curve, poor fit]
N#C/C(=C/c1ccccc1Cl)c1nc(-c2cc3ccccc3oc2=O)cs1 | – | inconclusive: 18.4 µM [rising, partial curve, poor fit]
CCCC1=C/C(=C/c2ccc(-c3ccccc3OC)o2)C(=O)O1 | inactive: -13.6% | –
O=C(COc1ccc(S(=O)(=O)N2CCCCC2)cc1)N1CCCCCC1 | – | inconclusive: 20.6 µM [cytotoxic, partial curve, poor fit]
O=C(CCl)Nc1ccccc1Sc1ccccc1 | inactive: 0% | –
Cc1ccc(Nc2nc(C)cc(C)n2)c(Br)c1 | inactive: -28.7% | –
Cc1ccc(NC(NC(=O)c2cccs2)C(Cl)(Cl)Cl)cc1C (stereo not given) | – | inconclusive: 18.4 µM [cytotoxic, single point]
CC(=O)c1nnn(-c2ccc(F)cc2F)c1C | – | inconclusive: 29.1 µM [rising, single point]
O=S(=O)(c1ccc(C(F)(F)F)cc1)N1CCCN(c2ccc(C(F)(F)F)cn2)CC1 | – | inconclusive: 20.6 µM [cytotoxic, single point]
CCOC(=O)[C@H]1[C@H]2COc3ccc(C)cc3[C@@H]2N2C(=O)[C@@H](CO)NC(=O)[C@@]12C | – | inconclusive: 3.26 µM [rising, full curve, poor fit]
Cc1cccc(-c2ncc(CN3CCN(CC(C)C)C(CCO)C3)cn2)c1 (stereo not given) | – | inconclusive: 16.4 µM [cytotoxic, partial curve]
CN1/C(=C\C(=O)C[n+]2ccc(C(=O)c3ccccc3)cc2)C(C)(C)c2ccccc21 | – | inconclusive: 0.0326 µM [rising, full curve]
CCOc1ccc(C2C(C(=O)OC)=CN(C(C)c3ccccc3)C=C2C(=O)OC)cc1 (stereo not given) | – | inconclusive: 0.184 µM [cytotoxic, full curve, poor fit]
CCn1nnc2sc3c(c2c1=O)CCC(C)C3 (stereo not given) | – | inconclusive: 29.1 µM [cytotoxic, single point]
O=C(Nc1nsc(-c2ccccc2)n1)c1cccs1 | – | inconclusive: 20.6 µM [cytotoxic, single point]
COc1ccc2cc3cc(C(=O)NCCN4CCc5ccccc5C4)oc3nc2c1 | – | inconclusive: 14.6 µM [cytotoxic, partial curve, poor fit]

Structure (SMILES) | activity change, negative = cytotoxicity | Potency
O=C1C=C(N2CCCCCC2)C2(CCCCC2)O1 | – | inconclusive: 0.0065 µM [rising, full curve, poor fit]
COc1ccc(-c2ccc(/C=C3/C(=N)N4C(C)=CSC4=NC3=O)o2)c([N+](=O)[O-])c1 | – | inconclusive: 10.3 µM [cytotoxic, partial curve]
CCOC(=O)N1CCN(C(=O)c2ccc3c(=O)n(CCOC)c(=O)[nH]c3c2)CC1 | – | inconclusive: 0.0731 µM [rising, full curve]
CC(=O)N1CCN(c2ccc(NC(=O)c3ccccc3)cc2)CC1 | inactive: 0% | –
COc1ccc(C2CC(c3ccccc3O)=NN2C(=O)c2ccccc2)cc1OC (stereo not given) | inactive: -0.822% | –
CCN(CC)C(=O)[C@H]1C[C@H](CC(=O)NCc2ccc(OC)c(OC)c2)C(=O)N2CCc3c([nH]c4cc(-c5ccco5)ccc34)[C@]12C | inactive: 0.0002% | –
CCCn1nnnc1NCc1ccc(SC)cc1 | – | inconclusive: 29.1 µM [rising, single point]
Cc1ccc(-n2nc3c([n+]2[O-])CCc2c-3no[n+]2[O-])cc1 | – | inconclusive: 29.1 µM [cytotoxic, single point]
COc1cccc(/C=C/C(=O)OCC(=O)c2c(N)n(C)c(=O)n(C)c2=O)c1 | – | inconclusive: 32.6 µM [cytotoxic, partial curve, poor fit]
Cc1noc(C)c1COc1ccccc1C(=O)NC1CCC(C)CC1 (stereo not given) | inactive: -29.2% | –
CCOCCOc1cc(NCc2ccccc2)c2ncn(C(C)C)c2c1 | – | inconclusive: 0.0046 µM [cytotoxic, full curve, poor fit]
CCc1ccc(-c2cc(C)no2)cc1S(=O)(=O)NCc1ccc(OC)cc1 | – | active: 3.66 µM
CCOC(=O)c1cccc(Nc2nc(-c3cccnc3)nc3ccccc23)c1 | – | inconclusive: 18.4 µM [cytotoxic, single point]
N#C/C(=C\c1ccc(Cl)c([N+](=O)[O-])c1)c1ccccn1 | inactive: -11% | –
COc1ccc(Cl)cc1NC(=O)c1cc(=O)c2cc(C)cc(C)c2o1 | – | inconclusive: 29.1 µM [cytotoxic, single point]
COc1ccc(Br)cc1/C=c1\sc2nc(-c3ccco3)nn2c1=O | inactive: -1.38% | –
Cc1cccc(NC(=O)CSc2nc(C)cc(C)c2C(=O)Nc2ccc(Cl)cc2)c1 | inactive: 0.837% | –
CN1CCN(C(=O)c2cnn(-c3ccccc3)c2C2CCN(C(=O)OC(C)(C)C)CC2)CC1 | inactive: 4.87% | –
CCc1cccc(NC(=O)Cn2c(=O)n(Cc3ccccc3)c(=O)c3c(C)c(C(=O)N(C)C)sc32)c1 | inactive: 8.98% | –
O=C(CO/N=C/c1ccc(OC(F)F)cc1)NC1CCCC1 | – | inconclusive: 29.1 µM [cytotoxic, single point]
CC(=NNC(=S)N1CCN(C2CCCCCC2)CC1)c1ccccn1 | – | inconclusive: 0.0082 µM [cytotoxic, full curve, poor fit]
CN1CCN(NC(=O)CC(C)(C)C)CC1 | – | inconclusive: 18.4 µM [rising, single point]

Structure (SMILES) | activity change, negative = cytotoxicity | Potency
CCc1nnc(SC(CC)C(=O)NCCOC)c2cc3occc3n12 (stereo not given) | inactive: 29.8% | –
COc1ccc(C(=O)N2CCC(C(=O)N3CCN(c4ccc(OC)cc4)CC3)CC2)cc1 | – | inconclusive: 23.1 µM [cytotoxic, single point]
Cc1ccc(CCNC(=O)Cn2ncc3c(=O)oc4ccccc4c32)cc1 | – | inconclusive: 16.4 µM [rising, single point]
COc1cccc(C(=O)NCCS(=O)(=O)NCc2ccc3c(c2)OCO3)c1 | – | active: 18.4 µM
COc1ccc(-c2nc3ccccc3o2)cc1NC(=O)COc1c(C)cc(Cl)cc1Cl | inactive: 4.69% | –
COc1ccccc1N1CCN(CC(=O)c2c(C)[nH]c3cc(C)ccc23)CC1 | – | inconclusive: 9.2 µM [cytotoxic, partial curve]
O=C(Nc1cc(Cl)ccc1-n1cncn1)c1cc(F)c(F)c(F)c1F | inactive: 4.05% | –
CC(C)S(=O)(=O)c1csc(NC(=O)Nc2ccc(Cl)cc2)c1 | inactive: -4.92% | –
CCc1ccc2c(c1)c(=O)c(S(=O)(=O)c1ccccc1)cn2CC(=O)Nc1cc(C)ccc1C | – | inconclusive: 29.1 µM [rising, single point]
Cc1cccc(-c2nc3c4ccccc4n(CC(=O)Nc4cccc(F)c4)c(=O)n3n2)c1 | – | inconclusive: 29.1 µM [cytotoxic, single point]
COc1ccc(OC)c(NC(=O)c2ccc3c(=O)n(CCc4ccccc4)c(=S)[nH]c3c2)c1 | – | inconclusive: 0.461 µM [cytotoxic, full curve]
CCOC(=O)N/N=C\c1ccc([N+](=O)[O-])o1 | – | inconclusive: 16.4 µM [cytotoxic, single point]
COc1ccc(C2C(C(=O)Nc3cccnc3)=C(C)Nc3nc(-c4cccs4)nn32)cc1OC (stereo not given) | inconclusive: 13.5% | –
COc1ccc(OC)c(S(=O)(=O)N2CCC3(CC2)OCCN3S(=O)(=O)c2cccs2)c1 | – | inconclusive: 16.4 µM [cytotoxic, single point]
CC1CN(CC(=O)Nc2ccccc2Sc2ccccc2)CC(C)O1 (stereo not given) | – | inconclusive: 20.6 µM [cytotoxic, partial curve, poor fit]
Cc1ccc(C(=O)N2CCN(S(=O)(=O)c3ccc(C(C)C)cc3)CC2)s1 | – | inconclusive: 8.2 µM [cytotoxic, partial curve, poor fit]
O=C(N/N=C/c1ccccc1)c1n[nH]c2c1CCCC2 | – | inconclusive: 29.1 µM [cytotoxic, single point]
CC(c1ccon1)N(C)C(=O)c1ccc(OC2CCN(C(=O)C3CC3)CC2)cc1 (stereo not given) | – | inconclusive: 32.6 µM [cytotoxic, single point]
Cc1ccc(C)c(OCc2cc(C(=O)N3C[C@@H](C)O[C@@H](C)C3)no2)c1 | – | inconclusive: 7.31 µM [cytotoxic, partial curve, poor fit]
C=CCN(C(=O)CCC(=O)O)C1CC(=O)N(c2ccc(OCCC)cc2)C1=O (stereo not given) | – | inconclusive: 25.9 µM [rising, partial curve, poor fit]
CC(=O)C[C@H]1c2cc(C(F)(F)F)ccc2S(=O)(=O)N1C1CCCCC1 | – | inconclusive: 16.4 µM [cytotoxic, partial curve, poor fit] and inconclusive: 23.1 µM [cytotoxic, single point]

Complete entries from above. Order of values: activity change, negative = cytotoxicity	Potency
CCOC(=O)N/N=C\c1ccc([N+](=O)[O-])o1 as listed: –	inconclusive: 16.4 µM [cytotoxic, single point]
Cc1ccc(C(=O)N2CCN(S(=O)(=O)c3ccc(C(C)C)cc3)CC2)s1 as listed: –	inconclusive: 8.2 µM [cytotoxic, partial curve, poor fit]
CC(=O)C[C@H]1c2cc(C(F)(F)F)ccc2S(=O)(=O)N1C1CCCCC1 as listed: –	inconclusive: 16.4 µM [cytotoxic, partial curve, poor fit] and inconclusive: 23.1 µM [cytotoxic, single point]
CC(C)S(=O)(=O)c1csc(NC(=O)Nc2ccc(Cl)cc2)c1 as listed: inactive: -4.92%	–
